Data as given in PMC6702985.
No constants are given. Whether binding was seen depends on the method and setting. In cells and extracts the contact can be indirect. Some binding calls cover weakened binding; strength is not graded here. Sequences can lack the tags named with a protein.

B1: CCDC42-Cherry (coiled-coil domain containing 42, isoform 203, fused to Cherry), expressed in HEK-293 cells (protein, UniProt Q5SV66-1 1-316)
chain: MSLGMMEEEDLAEYFRLQYGERLLQLLQKFPNVEEQSDSPSIQLLEKKKEAKIMQEAMEHKKEAFQRRMETLNLRWEELGIKEEQLKAHIQKFEQFIQENDQKRIRALKKANKERELKRLRLRELAKAKQEMMALRLEHQKLSVKLQDYAIFNKYLEKVVENSEFEEIHEVIARYKTLVSMHHDLMQSAQEGQEKIERAKARLARYMEEKDDEILQHNNELARLQMRFDRARSDVIFWESRWAHIQNTAAKKTLLLGTIKMATLNLFQIVSKQLKESTQVSLEDTHKQLDMIQQFIQDLSDIWTEVKKKEQQQVRM
B2: ODF1-ECFP (outer dense fiber protein 1 fused to ECFP) (protein, UniProt Q61999 1-247)
chain: MAALSCLLDSVRRDIKKVDRELRQLRCIDEISSRCLCDLYMHPYCCCDLHPYPYCLCYSKRSRSCGLCDLYYPCCLCDYKLYCLRPSLRSLERLRRTTNRILASSCCSSNILGSVNVCGFEPDQVKVRVKDGKVCVSAERENRYDCLGSKKYSYMNICKEFSLPPCVDEKDVTYSYGLGSCVKIESPCYPCTSPCNPCNPCSPCSPCAPCACGPCGPCGPCGPCGPCDPCNPCYPCGSRFSCRKMIL

Columns and labels:
[1] = biological target: T1, ODF1-ECFP (outer dense fiber protein 1 fused to ECFP) (UniProt Q61999); experiment: co-IP; HEK-293 cells transfected with both expression plasmids; lysis buffer 150 mM NaCl, 1% Nonidet P40, 0.5% sodium deoxycholate, 0.1% SDS, 50 mM Tris-HCl pH 7.6; capture with rabbit anti-GFP or rat anti-RedFP on protein G agarose overnight at 4°C; control rabbit anti-GAL4 (DBD); immunoblot
T1 sequence: B2 chain

[2] = biological target: T2, CCDC42-Cherry (coiled-coil domain containing 42, isoform 203, fused to Cherry), expressed in HEK-293 cells (mouse) (UniProt Q5SV66); experiment: as above
T2 sequence: B1 chain

Binder | binding [1] | binding [2]
B1 | binds | –
B2 | – | binds
